Experimental data from article PMC9830826.
No constants are given. Whether binding was seen depends on the method and setting. Binding seen in cells or lysates may run through a third protein. Some results given as binding are weak or reduced against the parent protein; the word gives no strength.

Target: T1, Silent mating type information regulation 2 homolog 1 (mouse (endogenous in BV-2)) (UniProt Q923E4)
T1 sequence: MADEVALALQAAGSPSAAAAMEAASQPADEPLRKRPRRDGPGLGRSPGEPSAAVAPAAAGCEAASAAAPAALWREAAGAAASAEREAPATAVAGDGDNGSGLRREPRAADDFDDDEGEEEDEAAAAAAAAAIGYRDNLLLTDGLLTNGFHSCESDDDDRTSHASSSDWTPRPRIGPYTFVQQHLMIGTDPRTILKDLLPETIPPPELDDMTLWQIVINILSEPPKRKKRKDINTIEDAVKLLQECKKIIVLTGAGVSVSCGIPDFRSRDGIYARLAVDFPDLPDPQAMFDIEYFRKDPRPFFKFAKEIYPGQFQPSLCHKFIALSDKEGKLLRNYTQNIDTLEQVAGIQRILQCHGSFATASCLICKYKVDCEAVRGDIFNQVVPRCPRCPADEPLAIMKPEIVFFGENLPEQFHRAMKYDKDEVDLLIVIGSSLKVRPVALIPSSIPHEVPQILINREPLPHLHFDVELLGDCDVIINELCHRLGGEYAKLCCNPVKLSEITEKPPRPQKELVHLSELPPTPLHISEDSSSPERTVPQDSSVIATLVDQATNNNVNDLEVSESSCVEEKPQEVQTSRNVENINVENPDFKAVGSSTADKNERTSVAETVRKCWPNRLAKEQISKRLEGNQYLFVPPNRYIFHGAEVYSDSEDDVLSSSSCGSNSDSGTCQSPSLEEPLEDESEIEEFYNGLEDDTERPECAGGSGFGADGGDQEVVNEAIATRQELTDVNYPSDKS
Assay: co-IP; BV-2 cells transfected with KLF3-AS1 overexpression plasmid or vector; lysate in RIPA buffer incubated with Sirt1 antibody or USP22 antibody at 4 °C overnight, protein A/G Sepharose beads 4 h at 4 °C; western blot with anti-Sirt1 or anti-USP22

binding: binds
B1: Ubiquitin specific peptidase 22 (enzyme, UniProt Q5DU02 1-525)
chain: MVARPEPEVEAMDAELAVPPPGCSHLGSFKVDNWKQNLRAIYQCFVWSGTAEARKRKAKSCVCHVCGIHLNRLHSCLYCVFFGCFTKKHIHDHAKSKRHNLAIDLMYGGIYCFLCQDYIYDKDIEIIAKEEQRKAWKMQGVGEKFSTWEPTKRELELLKHNPKRRKITSNCTIGLRGLINLGNTCFMNCIVQALTHTPLLRDFFLSDRHRCEMQSPSSCLVCEMSSLFQEFYSGHRSPHIPYKLLHLVWTHARHLAGYEQQDAHEFLIAALDVLHRHCKGDDNGKKANNPNHCNCIIDQIFTGGLQSDVTCQVCHGVSTTIDPFWDISLDLPGSSTPFWPLSPGSEGSVVNGESHASGTTTLTDCLRRFTRPEHLGSSAKIKCSGCHSYQESTKQLTMKKLPIVACFHLKRFEHSAKLRRKITTYVSFPLELDMTPFMASSKESRMNGQYQQPLDSLNNDNKYSLFAVVNHQGTLESGHYTSFIRQHKDQWFKCDDAIITKASIKDVLDSEGYLLFYHKQFLEYE
